# Some results were stated once for a whole list of compounds, not compound by compound. At least one structure is not confirmed: it was looked up by name or label, or the drawing left a doubt.
# Assay: Chemical stability in a cosmetic formulation, accelerated aging test (45° C., 3 months)
# Protocol: In an embodiment, the chemical stability of the modified molecules was evaluated in accelerated degradation tests. For this purpose, the test molecules were formulated in a cosmetic relevant formulation and its degradations were assessed for a period of 3 months.
# In an embodiment, the cosmetic formulation may comprise water, jojoba seed oil, butylene glycol, squalane, sodium hyaluronate, cetearyl alcohol and a carbomer.
# In an embodiment, test molecules were added to the cosmetic formulation at 0.1% m/m level, thoroughly homogenized to ensure uniform dispersion and stored in closed glass bottles in an oven at 45° C. for 3 months. In order to evaluate homogeneity and stability, 3 samples were collected from random positions immediately after preparation and at each time point evaluated. The quantification of the test molecules was performed by HPLC.
# In an embodiment, the preparation of the mixtures for evaluation of the stability was performed according to the following experimental protocol. […]
# In an embodiment, the stability of the test molecules in the cosmetic formulation was determined. […] The samples were prepared for analysis by solubilizing them in acetonitrile and the quantification of the modified and non-modified tocopherol and tocotrienol molecules was performed by HPLC. […]
compound,measurement,value
"CC(C)=CCC/C(C)=C/CC/C(C)=C/CC[C@]1(C)CCc2cc(O)c(C)c(C)c2O1 [γ-tocotrienol, reference compound]",Decrease of quantity after 3 months of accelerated aging,≥ 50%
